Measured values reported in the supplement of paper PMC10849652.
The other results are listed elsewhere or left out.

Protein sequences, listed by entry. Tags and fused reporters are not part of them. Lines headed by an entry give the natural chain unless they say otherwise; changes in a name come on top.
UniProt O43909: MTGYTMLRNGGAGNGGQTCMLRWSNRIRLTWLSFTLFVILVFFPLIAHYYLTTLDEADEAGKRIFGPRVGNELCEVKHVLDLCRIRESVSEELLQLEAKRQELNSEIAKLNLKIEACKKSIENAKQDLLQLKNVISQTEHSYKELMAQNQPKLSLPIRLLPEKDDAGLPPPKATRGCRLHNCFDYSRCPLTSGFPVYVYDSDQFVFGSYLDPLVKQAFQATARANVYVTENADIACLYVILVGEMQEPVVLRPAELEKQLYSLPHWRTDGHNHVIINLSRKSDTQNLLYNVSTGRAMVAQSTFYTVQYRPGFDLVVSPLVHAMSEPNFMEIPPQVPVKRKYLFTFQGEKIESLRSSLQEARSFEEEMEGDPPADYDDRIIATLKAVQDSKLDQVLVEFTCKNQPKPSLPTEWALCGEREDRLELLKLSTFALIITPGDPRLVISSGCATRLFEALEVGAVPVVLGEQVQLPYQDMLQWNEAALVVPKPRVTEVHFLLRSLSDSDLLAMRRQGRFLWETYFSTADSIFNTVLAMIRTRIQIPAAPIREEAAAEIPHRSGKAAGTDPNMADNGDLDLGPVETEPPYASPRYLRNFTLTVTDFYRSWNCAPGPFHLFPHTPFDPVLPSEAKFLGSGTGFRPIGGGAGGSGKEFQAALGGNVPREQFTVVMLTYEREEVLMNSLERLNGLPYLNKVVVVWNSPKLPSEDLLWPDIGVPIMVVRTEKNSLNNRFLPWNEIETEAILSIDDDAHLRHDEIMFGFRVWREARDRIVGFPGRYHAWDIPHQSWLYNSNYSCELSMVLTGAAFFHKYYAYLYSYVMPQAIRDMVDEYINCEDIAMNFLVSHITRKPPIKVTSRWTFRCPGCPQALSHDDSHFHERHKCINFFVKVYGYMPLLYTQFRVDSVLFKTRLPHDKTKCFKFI
UniProt Q8IV48: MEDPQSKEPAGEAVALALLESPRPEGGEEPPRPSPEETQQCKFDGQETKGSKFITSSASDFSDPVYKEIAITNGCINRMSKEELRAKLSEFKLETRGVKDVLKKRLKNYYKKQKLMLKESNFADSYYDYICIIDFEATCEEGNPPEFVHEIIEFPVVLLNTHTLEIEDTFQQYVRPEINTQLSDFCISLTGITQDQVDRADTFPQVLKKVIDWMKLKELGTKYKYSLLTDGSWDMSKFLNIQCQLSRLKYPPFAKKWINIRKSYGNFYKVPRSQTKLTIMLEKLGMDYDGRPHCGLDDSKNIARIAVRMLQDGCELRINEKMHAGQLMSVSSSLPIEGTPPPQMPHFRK
UniProt O43491, whole entry, looked up: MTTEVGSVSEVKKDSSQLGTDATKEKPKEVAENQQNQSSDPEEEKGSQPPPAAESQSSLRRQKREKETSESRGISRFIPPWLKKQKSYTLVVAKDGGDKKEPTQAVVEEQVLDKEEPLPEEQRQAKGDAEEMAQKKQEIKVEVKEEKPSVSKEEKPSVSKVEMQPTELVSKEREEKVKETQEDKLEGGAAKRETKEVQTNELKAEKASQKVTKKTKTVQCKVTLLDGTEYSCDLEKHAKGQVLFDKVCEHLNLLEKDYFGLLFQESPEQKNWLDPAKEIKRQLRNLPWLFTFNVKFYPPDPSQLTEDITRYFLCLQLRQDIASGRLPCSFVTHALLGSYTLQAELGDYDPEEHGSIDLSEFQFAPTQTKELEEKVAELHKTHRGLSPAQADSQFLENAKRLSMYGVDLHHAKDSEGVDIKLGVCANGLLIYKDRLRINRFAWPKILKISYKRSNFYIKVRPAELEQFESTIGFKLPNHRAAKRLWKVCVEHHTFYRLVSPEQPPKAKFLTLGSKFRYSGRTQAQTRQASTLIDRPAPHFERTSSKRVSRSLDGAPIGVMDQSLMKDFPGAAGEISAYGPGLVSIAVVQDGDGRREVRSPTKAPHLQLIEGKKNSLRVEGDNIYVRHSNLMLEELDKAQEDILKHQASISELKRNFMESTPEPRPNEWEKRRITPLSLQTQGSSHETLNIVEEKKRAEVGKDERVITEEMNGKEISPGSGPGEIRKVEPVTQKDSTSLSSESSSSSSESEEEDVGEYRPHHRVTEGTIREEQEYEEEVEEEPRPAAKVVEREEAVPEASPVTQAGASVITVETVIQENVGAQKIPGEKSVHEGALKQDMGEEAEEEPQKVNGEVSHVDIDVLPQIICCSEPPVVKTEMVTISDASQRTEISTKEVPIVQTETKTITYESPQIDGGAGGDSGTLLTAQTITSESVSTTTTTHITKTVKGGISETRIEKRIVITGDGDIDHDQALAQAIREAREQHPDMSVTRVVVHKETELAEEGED
UniProt Q8N612: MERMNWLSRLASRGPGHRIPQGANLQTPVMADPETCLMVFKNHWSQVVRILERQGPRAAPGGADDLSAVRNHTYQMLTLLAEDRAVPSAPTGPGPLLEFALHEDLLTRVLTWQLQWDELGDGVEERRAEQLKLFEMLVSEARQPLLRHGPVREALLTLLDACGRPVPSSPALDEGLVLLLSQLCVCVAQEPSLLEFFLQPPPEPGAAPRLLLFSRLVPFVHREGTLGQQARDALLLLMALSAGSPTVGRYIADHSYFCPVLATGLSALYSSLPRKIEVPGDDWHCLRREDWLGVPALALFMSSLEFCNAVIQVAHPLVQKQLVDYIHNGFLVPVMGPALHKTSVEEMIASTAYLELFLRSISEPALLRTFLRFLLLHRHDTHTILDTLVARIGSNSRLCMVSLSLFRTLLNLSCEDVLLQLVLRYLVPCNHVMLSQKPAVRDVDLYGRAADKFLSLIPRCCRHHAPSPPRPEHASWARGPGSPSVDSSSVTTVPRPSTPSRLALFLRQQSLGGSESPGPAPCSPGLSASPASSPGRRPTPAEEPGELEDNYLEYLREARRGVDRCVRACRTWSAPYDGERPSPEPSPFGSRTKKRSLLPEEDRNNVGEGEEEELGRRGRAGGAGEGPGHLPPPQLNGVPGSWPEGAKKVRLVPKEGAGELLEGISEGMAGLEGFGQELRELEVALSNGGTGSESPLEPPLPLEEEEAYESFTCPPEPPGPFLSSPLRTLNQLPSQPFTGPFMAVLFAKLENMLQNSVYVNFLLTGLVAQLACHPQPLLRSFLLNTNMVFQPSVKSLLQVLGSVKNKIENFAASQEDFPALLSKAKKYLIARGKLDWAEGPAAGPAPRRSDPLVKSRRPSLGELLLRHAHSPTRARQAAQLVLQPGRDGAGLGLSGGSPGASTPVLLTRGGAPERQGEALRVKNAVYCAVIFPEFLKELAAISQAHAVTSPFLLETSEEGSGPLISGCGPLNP
UniProt Q8TBP5: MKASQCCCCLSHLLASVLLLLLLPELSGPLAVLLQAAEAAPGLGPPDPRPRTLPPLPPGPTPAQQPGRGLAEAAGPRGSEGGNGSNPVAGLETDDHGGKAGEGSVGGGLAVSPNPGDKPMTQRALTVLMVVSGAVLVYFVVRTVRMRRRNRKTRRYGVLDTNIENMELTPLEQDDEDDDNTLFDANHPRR
UniProt Q6NZ36: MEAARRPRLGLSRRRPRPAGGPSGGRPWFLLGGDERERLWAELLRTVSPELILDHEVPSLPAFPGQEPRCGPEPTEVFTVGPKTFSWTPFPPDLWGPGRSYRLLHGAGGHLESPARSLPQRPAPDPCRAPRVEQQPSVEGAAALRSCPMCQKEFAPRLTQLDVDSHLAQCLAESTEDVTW
UniProt Q8WUF8: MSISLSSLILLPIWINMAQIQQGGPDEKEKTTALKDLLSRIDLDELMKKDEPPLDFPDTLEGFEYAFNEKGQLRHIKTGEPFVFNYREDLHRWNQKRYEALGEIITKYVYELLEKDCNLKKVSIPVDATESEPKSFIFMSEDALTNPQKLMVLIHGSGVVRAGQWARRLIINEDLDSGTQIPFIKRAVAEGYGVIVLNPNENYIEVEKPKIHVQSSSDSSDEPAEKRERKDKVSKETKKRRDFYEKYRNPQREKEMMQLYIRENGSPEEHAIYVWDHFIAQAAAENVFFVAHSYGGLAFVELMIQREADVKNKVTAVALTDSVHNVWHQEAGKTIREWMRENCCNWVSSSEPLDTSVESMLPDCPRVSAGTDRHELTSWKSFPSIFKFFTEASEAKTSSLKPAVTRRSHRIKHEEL
UniProt Q99504: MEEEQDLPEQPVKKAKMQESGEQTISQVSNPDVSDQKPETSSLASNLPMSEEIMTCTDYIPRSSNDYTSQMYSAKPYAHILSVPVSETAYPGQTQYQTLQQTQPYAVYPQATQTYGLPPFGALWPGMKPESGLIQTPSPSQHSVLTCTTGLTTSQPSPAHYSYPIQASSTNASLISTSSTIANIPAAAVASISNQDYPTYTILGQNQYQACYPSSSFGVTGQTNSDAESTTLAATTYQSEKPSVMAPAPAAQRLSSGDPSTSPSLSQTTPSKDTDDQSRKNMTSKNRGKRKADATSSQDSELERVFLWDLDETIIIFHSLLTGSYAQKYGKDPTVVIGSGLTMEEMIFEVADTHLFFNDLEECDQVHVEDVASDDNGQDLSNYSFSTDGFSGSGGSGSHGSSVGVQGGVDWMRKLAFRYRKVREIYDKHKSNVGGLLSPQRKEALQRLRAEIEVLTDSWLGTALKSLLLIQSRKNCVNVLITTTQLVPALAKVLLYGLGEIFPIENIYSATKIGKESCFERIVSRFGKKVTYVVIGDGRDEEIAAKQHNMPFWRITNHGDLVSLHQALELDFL
UniProt Q8TE68: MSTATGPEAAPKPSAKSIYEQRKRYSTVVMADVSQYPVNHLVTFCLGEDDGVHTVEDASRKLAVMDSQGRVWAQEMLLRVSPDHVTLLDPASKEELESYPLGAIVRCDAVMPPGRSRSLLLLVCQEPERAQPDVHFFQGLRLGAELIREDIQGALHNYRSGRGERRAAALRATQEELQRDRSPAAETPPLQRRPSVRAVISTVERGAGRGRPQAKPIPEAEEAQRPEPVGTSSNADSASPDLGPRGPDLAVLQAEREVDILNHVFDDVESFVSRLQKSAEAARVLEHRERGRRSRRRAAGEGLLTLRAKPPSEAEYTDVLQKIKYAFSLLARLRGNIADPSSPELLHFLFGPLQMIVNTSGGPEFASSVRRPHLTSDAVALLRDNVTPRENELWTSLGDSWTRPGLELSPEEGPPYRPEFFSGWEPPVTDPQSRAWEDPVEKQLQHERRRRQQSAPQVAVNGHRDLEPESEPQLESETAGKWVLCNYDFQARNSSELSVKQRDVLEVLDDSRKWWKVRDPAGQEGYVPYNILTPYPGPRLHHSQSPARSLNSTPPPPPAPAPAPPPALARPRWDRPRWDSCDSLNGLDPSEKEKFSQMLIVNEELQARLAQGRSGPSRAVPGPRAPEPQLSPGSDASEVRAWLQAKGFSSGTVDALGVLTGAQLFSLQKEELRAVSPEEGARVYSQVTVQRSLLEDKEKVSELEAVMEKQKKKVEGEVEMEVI
UniProt P54760: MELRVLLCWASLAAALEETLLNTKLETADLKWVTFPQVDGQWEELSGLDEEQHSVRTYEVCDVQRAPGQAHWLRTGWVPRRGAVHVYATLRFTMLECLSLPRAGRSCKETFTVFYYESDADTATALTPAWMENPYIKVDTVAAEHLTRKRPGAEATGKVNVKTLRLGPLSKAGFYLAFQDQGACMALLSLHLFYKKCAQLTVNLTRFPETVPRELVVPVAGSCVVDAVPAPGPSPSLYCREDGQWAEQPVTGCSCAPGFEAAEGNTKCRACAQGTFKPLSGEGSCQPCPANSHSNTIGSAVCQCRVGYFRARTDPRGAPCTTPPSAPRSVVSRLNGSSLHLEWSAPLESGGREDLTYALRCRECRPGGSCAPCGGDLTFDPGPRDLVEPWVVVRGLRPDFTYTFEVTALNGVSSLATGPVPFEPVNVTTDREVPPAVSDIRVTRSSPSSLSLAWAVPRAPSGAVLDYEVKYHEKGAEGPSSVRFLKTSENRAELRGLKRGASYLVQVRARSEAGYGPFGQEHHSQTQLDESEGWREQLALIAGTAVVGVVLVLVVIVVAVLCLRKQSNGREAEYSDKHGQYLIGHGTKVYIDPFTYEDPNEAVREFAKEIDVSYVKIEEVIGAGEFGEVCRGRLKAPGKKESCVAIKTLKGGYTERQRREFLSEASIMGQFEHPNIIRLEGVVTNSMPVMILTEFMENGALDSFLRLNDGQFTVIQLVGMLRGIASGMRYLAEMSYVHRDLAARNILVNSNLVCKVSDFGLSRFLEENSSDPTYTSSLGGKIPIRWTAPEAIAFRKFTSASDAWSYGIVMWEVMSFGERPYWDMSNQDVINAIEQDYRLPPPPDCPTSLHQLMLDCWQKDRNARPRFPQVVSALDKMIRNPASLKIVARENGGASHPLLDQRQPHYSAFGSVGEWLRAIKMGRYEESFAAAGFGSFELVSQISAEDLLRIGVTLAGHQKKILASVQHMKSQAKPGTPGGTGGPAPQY

Tests used:
Assay in all cases: log2 fold change, soluble protein after heating vs DMSO (PISA); higher = thermal stabilisation; K562 cells, 10 uM, 30 min; active = over 0.2 and 3.5 SD of the protein, either way, in both replicates (recomputed)
[1] = compound: C/C(=N\NC(=O)C1=CC(=CC=C1)S(=O)(=O)N2CCOCC2)/C3=C(C=CC(=C3)Cl)O
How it was run: (§1)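 Thermal stability values are relative to control samples and come from duplicates. They are expressed as log2 fold changes. For measurement, K562 cells (2×10^6 cells/mL) received 10 μM compound for 30 min, and aliquots were heated for 3 min over 48°C-58°C, pooled, and extracted at 4°C in PBS with 0.5% NP-40. Soluble protein, the supernatant after 21,000xg for 90 min, was quantified by TMTpro 16plex LC-MS/MS with equalised channel sums.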

[2] = compound: C1=CC(=C(C=C1Cl)C2=NC3=NC=CN=C3C(=N2)NC4=CC=NC=C4)F
How it was run: as §1

[3] = compound: C1=CC2=C(C=CC(=C2)/C=C\3/C(=O)NC(=NCC4=CC=CS4)S3)N=C1
How it was run: as §1

[4] = compound: C1=CC2=NC=CN=C2C=C1/C=C/3\C(=O)NC(=O)S3
How it was run: as §1

[5] = compound: C1=CC=C(C=C1)C2=NC(=C(N2)C3=CC=NC=C3)C4=CC(=C(C=C4)Cl)O
How it was run: as §1

[6] = compound: C1=CC=C2C(=C1)C3=NNC4=CC=CC(=C43)C2=O
How it was run: as §1

[7] = compound: C1CCN(C1)C(=O)NC2=CC=CC(=C2)NC3=NC=C(C(=N3)NCCC4=CN=CN4)Br
How it was run: as §1

[8] = compound: C1CN(CCC1(CC2=CC=C(C=C2)Cl)N)C3=NC=NC4=C3C=CN4
How it was run: as §1

Measured: log2 fold change

EXTL3 (UniProt O43909)
inactive: [1] -0.034 | [2] -0.301 | [3] 0.009 | [4] -0.104 | [5] 0.016 | [6] 0.016 | [7] -0.048 | [8] 0.049

FADS1 (UniProt F5GYH4)
inactive: [4] 0.155 | [7] 0.057 | [8] 0.002

ERI1 (UniProt Q8IV48)
inactive: [2] -0.179 | [5] 0.041 | [7] 0.013 | [8] -0.037

EPB41L2 isoform 4 (UniProt O43491)
inactive: [2] 0.027 | [4] -0.005

FAM160A2 isoform 2 (UniProt Q8N612)
inactive: [2] 0.2 | [4] -0.012 | [5] -0.134 | [7] -0.071 | [8] 0.027

FAM174A (UniProt Q8TBP5)
inactive: [7] 0 | [8] 0.095

EPS15L1 (UniProt M0QY01)
inactive: [2] -0.004

FAAP20 isoform 2 (UniProt Q6NZ36)
inactive: [2] -0.055

FAM172A (UniProt Q8WUF8)
inactive: [2] 0.031 | [4] -0.106

EYA3 (UniProt Q99504)
inactive: [1] 0.056 | [3] 0.304 | [6] -0.034 | [7] -0.146 | [8] -0.069

EPS8L1 (UniProt Q8TE68)
inactive: [2] 0.042 | [4] -0.211

EPHB4 (UniProt P54760)
inactive: [5] -0.151

2 consecutive records already listed, for reference:
EPS8L1 (UniProt Q8TE68)
inactive: [2] 0.042 | [4] -0.211

EPHB4 (UniProt P54760)
inactive: [5] -0.151
